The values below come from PMC7948504.

Protein sequences, listed by entry. Tags and fused reporters are not part of them. Lines headed by an entry give the natural chain unless they say otherwise; changes in a name come on top.
UniProt Q96D31: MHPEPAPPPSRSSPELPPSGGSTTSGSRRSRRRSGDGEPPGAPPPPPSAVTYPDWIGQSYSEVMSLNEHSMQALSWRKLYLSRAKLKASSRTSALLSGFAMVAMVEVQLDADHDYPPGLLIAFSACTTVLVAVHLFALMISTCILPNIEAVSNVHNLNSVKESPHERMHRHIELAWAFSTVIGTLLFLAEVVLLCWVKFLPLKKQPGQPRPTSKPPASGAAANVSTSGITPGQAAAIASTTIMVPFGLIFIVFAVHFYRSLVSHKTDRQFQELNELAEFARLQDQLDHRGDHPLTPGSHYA

Targets include Orai1 R91C H134A (human) (UniProt Q96D31); Orai1 V102C (human) (UniProt Q96D31); Orai1 R91C (human) (UniProt Q96D31).
Holding throughout (assay): cross-linking; lysates of transfected HEK293T cells, 1 mM CuP 5 min at room temperature, stopped with 50 mM N-ethylmaleimide; non-reducing 12% SDS-PAGE, anti-Orai1 blot, percentage of dimer formation
Test [1] addresses Orai1 R91C H134A L174D (human) (UniProt Q96D31).
For test [2], the target named is Orai1 K85E V102C H134A (human) (UniProt Q96D31).
For test [3], the target named is Orai1 R91C H134A E149K (human) (UniProt Q96D31).
The target of test [4] is Orai1 V102C H134A (human) (UniProt Q96D31).
Test [5] deals with Orai1 R91C H134A S239W (human) (UniProt Q96D31).
Test [6] concerns the target Orai1 K85E R91C H134A (human) (UniProt Q96D31).

No constants are given. Whether binding was seen depends on the method and setting. Binding seen in cells or lysates may run through a third protein. Some binding calls cover weakened binding; strength is not graded here.

Turning to “Orai1 R91C H134A L174D (from UniProt Q96D31-1 1-301)”, the binding entry in [1] was “binds”. “Orai1 R91C H134A (from UniProt Q96D31-1 1-301)”: the binding entry with Orai1 R91C H134A (human) is reported as “binds”. On to “Orai1 V102C (from UniProt Q96D31-1 1-301)”, for which, in the test with Orai1 V102C (human), the binding entry was “binds”. In the case of “Orai1 K85E V102C H134A (from UniProt Q96D31-1 1-301)”, the binding entry in [2] is “binds”. As to “Orai1 R91C H134A E149K (from UniProt Q96D31-1 1-301)”, the binding result in [3] is listed as “binds”.

On to “Orai1 V102C H134A (from UniProt Q96D31-1 1-301)”, for which, in test [4], the binding result is listed as “binds”. In the case of “Orai1 R91C H134A S239W (from UniProt Q96D31-1 1-301)”, the binding result in test [5] is “binds”.

On to “Orai1 K85E R91C H134A (from UniProt Q96D31-1 1-301)”, for which the binding entry in test [6] is recorded as “binds”.

With “Orai1 R91C (from UniProt Q96D31-1 1-301)”, the binding result in the test with Orai1 R91C (human) is recorded as “binds”.
